Results from patent US5580958.
At least one result comes from cells or an extract, where the contact may be indirect. Negatives hold for the conditions tested.

Chains of the proteins cited; added tags and fusions are not shown. Residues count along the entry.
UniProt P00722, 2-1024: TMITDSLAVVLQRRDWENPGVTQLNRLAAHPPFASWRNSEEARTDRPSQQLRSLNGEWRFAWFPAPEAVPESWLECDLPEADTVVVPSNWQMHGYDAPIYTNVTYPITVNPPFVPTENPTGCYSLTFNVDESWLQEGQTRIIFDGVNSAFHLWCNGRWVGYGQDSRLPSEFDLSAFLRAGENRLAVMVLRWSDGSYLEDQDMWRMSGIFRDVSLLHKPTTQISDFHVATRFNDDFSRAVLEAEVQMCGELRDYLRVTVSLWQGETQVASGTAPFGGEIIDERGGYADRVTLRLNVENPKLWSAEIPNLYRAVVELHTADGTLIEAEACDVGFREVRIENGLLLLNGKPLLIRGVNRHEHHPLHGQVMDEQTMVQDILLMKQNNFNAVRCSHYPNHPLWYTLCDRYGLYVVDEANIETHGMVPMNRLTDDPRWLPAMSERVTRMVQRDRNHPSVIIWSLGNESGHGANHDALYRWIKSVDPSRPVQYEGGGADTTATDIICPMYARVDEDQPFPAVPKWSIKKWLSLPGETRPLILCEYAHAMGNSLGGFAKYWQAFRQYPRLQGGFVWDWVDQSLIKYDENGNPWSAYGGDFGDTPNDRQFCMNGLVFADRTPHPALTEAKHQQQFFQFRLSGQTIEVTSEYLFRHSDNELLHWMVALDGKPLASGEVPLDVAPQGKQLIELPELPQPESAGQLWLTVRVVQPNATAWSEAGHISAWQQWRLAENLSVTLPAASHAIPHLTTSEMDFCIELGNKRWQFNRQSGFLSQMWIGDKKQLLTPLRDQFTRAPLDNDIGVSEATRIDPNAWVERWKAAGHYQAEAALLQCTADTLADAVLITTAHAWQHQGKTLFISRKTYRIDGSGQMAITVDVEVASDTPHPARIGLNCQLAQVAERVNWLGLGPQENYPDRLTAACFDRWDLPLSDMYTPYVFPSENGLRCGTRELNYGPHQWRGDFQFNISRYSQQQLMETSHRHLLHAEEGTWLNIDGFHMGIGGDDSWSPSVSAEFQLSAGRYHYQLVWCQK

Target: beta-galactosidase (lambda-gt11 lysogen) (UniProt P00722)
Assay: binding assay
Conditions: Southwestern, lambda-gt11 control lane; protein in an extract; label: 32P

GATCCGTCCCAAGTGAGGAACCAATCAGCATTG (double strand) [MHC class II I-A beta 33-mer (tetramer probe)]
binding result: no binding
